Reference: patent US9234043
No constants are given. Whether binding was seen depends on the method and setting. Some results given as binding are weak or reduced against the parent protein; the word gives no strength.

Molecular target: recombinant Rhesus (Macaca mulatta) OX40L (Rhesus (Macaca mulatta))
Test: SPR (ProteOn XPR36), antibody captured, rhesus OX40L at 256 nM, 25 C; CNROR = Cannot resolve off-rate

binding | Binder
binds | 10A07 (hybridoma) (antibody, V domains shown) VH: EVQLVESGGVLVQPGGSLRLSCAASGFTFSSYIMTWVRQAPGKGLEWVSGISGSGGGTYYADSMKGRFTISRDNSKNTLYLQMNSLRVEDTAVYYCAKDRLGPITLVRGGYYYGMDVWGQGTTVTVSS VL: DIQMTQSPSSLSASVGDRVTITCRASQSISDYLNWYQQKPGKAPKFLIYAASSLQSGVPSRFSGSGSGTDFTLTVSSLQPEDFATYYCQQSYSTPRTFGQGTRVEIK
binds | 10A07 (human) (antibody, human IgG4 S228P, kappa, V domains shown) VH: EVQLVESGGVLVQPGGSLRLSCAASGFTFSSYIMTWVRQAPGKGLEWVSGISGSGGGTYYADSMKGRFTISRDNSKNTLYLQMNSLRVEDTAVYYCAKDRLGPITLVRGGYYYGMDVWGQGTTVTVSS VL: DIQMTQSPSSLSASVGDRVTITCRASQSISDYLNWYQQKPGKAPKFLIYAASSLQSGVPSRFSGSGSGTDFTLTVSSLQPEDFATYYCQQSYSTPRTFGQGTRVEIKR
binds | 2D10 (hybridoma) (antibody, V domains shown) VH: EVQLVESGGGLVQPGGSLRLSCAASGFTFSNYAMNWVRQAPGKGLEWVSTISGSGGATRYADSVKGRFTISRDNSRNTVYLQMNSLRVEDTAVFYCTKDRLIMATVRGPYYYGMDVWGQGTTVTVSS VL: DIQMTQSPSSLSASVGDRVTITCRASQSISSYLNWYQQKPGKAPNLLIYAASSLQSGVPSRFSGSGSETDFTLTISSLQPEDFATYYCQQSHSVSFTFGPGTKVDIK
binds | 2D10 (human) (antibody, human IgG4 S228P, kappa, V domains shown) VH: EVQLVESGGGLVQPGGSLRLSCAASGFTFSNYAMNWVRQAPGKGLEWVSTISGSGGATRYADSVKGRFTISRDNSRNTVYLQMNSLRVEDTAVFYCTKDRLIMATVRGPYYYGMDVWGQGTTVTVSS VL: DIQMTQSPSSLSASVGDRVTITCRASQSISSYLNWYQQKPGKAPNLLIYAASSLQSGVPSRFSGSGSETDFTLTISSLQPEDFATYYCQQSHSVSFTFGPGTKVDIKR
